Common to all, as to conditions: 5 µM; treatment: days 7-14 after plating, readout day 21
Assay [1] has as its system hPSC-derived cortical neurons (WA09). As to the kind of experiment: nucleus area z-score vs screen plate; higher = larger nuclei (more mature).
Assay [2] shares this test system. As to the kind of experiment: total neurite length per nucleus (MAP2) z-score; higher = more neurite growth.
Assay [3] has the same test system. Nature of the assay: nucleus roundness z-score vs screen plate; higher = rounder nuclei (more mature).
Assay [4] has the same test system. As to the kind of experiment: KCl-induced FOS+/EGR-1+ double-positive nuclei fraction z-score (KCl minus unstimulated); higher = stronger activity-induced IEG response.

Counter-ions that a name gives are not always drawn. The list shows a part of the results. Most entries show no effect beyond the scatter of the controls. Where a SMILES comes first, the peptide text is derived from it. [ ]: non-standard residue; d: D form. Dip = N[C@H](C(=O)O)C(c1ccccc1)c1ccccc1

The compound `CNC(=O)CN(CCN(CCN(CC(=O)[O-])CC(=O)NC)CC(=O)[O-])CC(=O)[O-].O.[Gd+3]` [Gadodiamide Hydrate] registered a nucleus area z-score in assay [1] of -0.0529. Moreover, in assay [2], the “total neurite length per nucleus (z-score)” value is -0.209. The nucleus roundness z-score in assay [3] is -0.602. In assay [4], the “KCl-induced FOS+/EGR-1+ double-positive nuclei fraction z-score” value amounted to 1.5.
`O=C(CCCCCCC(=O)Nc1ccc([C@H]2O[C@@H](CSc3nc(-c4ccccc4)c(-c4ccccc4)o3)C[C@@H](c3ccc(CO)cc3)O2)cc1)NO` [Tubacin] registered a nucleus area z-score in assay [1] of -0.35. Also, the “total neurite length per nucleus (z-score)” value in assay [2] amounted to 0.826. This compound also registered a nucleus roundness z-score in assay [3] of 0.988. Moreover, the “KCl-induced FOS+/EGR-1+ double-positive nuclei fraction z-score” value in assay [4] worked out at 0.424.
The like results for `CN(C)Cc1cccc(N=C(c2ccccc2)c2c(O)[nH]c3cc(C(=O)N(C)C)ccc23)c1` were, in that order, 1.7, -0.196, -0.944 and -0.416.
The like results for `C=CC(=O)N1CCC[C@@H](n2nc(-c3ccc(Oc4ccccc4)cc3)c3c(N)ncnc32)C1` were, in that order, 0.919, -0.154, -0.396 and -0.641.
The like results for `CCn1cc(NC(=S)Nc2cc(Cl)ccc2OC)c(C(N)=O)n1` were, in that order, -0.325, 0.307, 0.427 and 0.208.
With `CNCc1ccc(C)c(NC(=O)c2ccc(Nc3nc(-c4ccccc4)c4ccccc4n3)cc2)c1`, the nucleus area z-score in assay [1] is -4.34. Further, in assay [2], the “total neurite length per nucleus (z-score)” value is -0.948. This compound yielded a nucleus roundness z-score in assay [3] of -6.8. Moreover, the “KCl-induced FOS+/EGR-1+ double-positive nuclei fraction z-score” value in assay [4] is -6.62.
With `Cn1c([N+](=O)[O-])cnc1COC(N)=O` [Ronidazole], the nucleus area z-score in assay [1] is -0.891. In assay [2], the “total neurite length per nucleus (z-score)” value came to 0.409. Also, the nucleus roundness z-score in assay [3] is -0.409. In assay [4], the “KCl-induced FOS+/EGR-1+ double-positive nuclei fraction z-score” value is -4.04.
In assay [1], `CCN1CCN(C(=O)N[C@@H](C(=O)N[C@@H]2C(=O)N3C(C(=O)O)=C(CSc4nnnn4C)CS[C@H]23)c2ccc(O)cc2)C(=O)C1=O` [Cefoperazone] showed a nucleus area z-score of 0.61. Further, the “total neurite length per nucleus (z-score)” value in assay [2] stood at 0.266. This compound also registered a nucleus roundness z-score in assay [3] of 0.376. The “KCl-induced FOS+/EGR-1+ double-positive nuclei fraction z-score” value in assay [4] is -0.381.
The like results for `CC1(C)CC[C@]2(NC(=O)C(C)(F)F)CC[C@]3(C)[C@H](C(=O)C=C4[C@@]5(C)C=C(C#N)C(=O)C(C)(C)[C@@H]5CC[C@]43C)[C@@H]2C1` [Omaveloxolone (RTA-408)] were, in that order, -5.89, -1.97, -1.58 and -0.0842.
The like results for `CC[C@@](C)(Nc1ccnc(-c2c[nH]c3ncccc23)n1)C(=O)NCC(F)(F)F` [Decernotinib (VX-509)] were, in that order, -0.222, 1.39, 2.5 and 0.935.
The like results for `CC(C)CCNC(=O)[C@H](CC(C)C)NC(=O)[C@H]1O[C@@H]1C(=O)O` [Loxistatin Acid (E-64C)] were, in that order, -0.267, 0.692, 0.361 and -0.058.
On to `COc1c2ccoc2cc2oc(=O)ccc12` [Bergapten], for which the nucleus area z-score in assay [1] is 1.31. Also, the “total neurite length per nucleus (z-score)” value in assay [2] is -0.192. This compound also registered a nucleus roundness z-score in assay [3] of -0.45. In assay [4], the “KCl-induced FOS+/EGR-1+ double-positive nuclei fraction z-score” value was -1.84.
`CC(C)c1noc(N2CCC(COc3ccc(-c4ccc(S(C)(=O)=O)cc4)nc3)CC2)n1` registered a nucleus area z-score in assay [1] of -0.144. Further, in assay [2], the “total neurite length per nucleus (z-score)” value was found to be 0.555. The same compound showed a nucleus roundness z-score in assay [3] of 0.558. Also, the “KCl-induced FOS+/EGR-1+ double-positive nuclei fraction z-score” value in assay [4] amounted to 0.326.
In turn, `Cc1cccc(CC(=O)N2CCc3c2ccc(-c2cn(C)c4ncnc(N)c24)c3F)n1` displayed a nucleus area z-score in assay [1] of -0.466. Further, the “total neurite length per nucleus (z-score)” value in assay [2] turned out to be 0.699. In addition, the nucleus roundness z-score in assay [3] was -0.0752. Besides, the “KCl-induced FOS+/EGR-1+ double-positive nuclei fraction z-score” value in assay [4] was -0.882.
For `Brc1c(NC2=NCCN2)ccc2nccnc12` [Brimonidine Tartrate], the nucleus area z-score in assay [1] is 0.295. In addition, the “total neurite length per nucleus (z-score)” value in assay [2] stood at 0.11. The nucleus roundness z-score in assay [3] was -0.164. The “KCl-induced FOS+/EGR-1+ double-positive nuclei fraction z-score” value in assay [4] is 1.19.
The like results for `C[C@H]1CO[C@@H]2Cn3cc(C(=O)NCc4ccc(F)cc4F)c(=O)c(O)c3C(=O)N12` were, in that order, 0.17, 0.227, 0.198 and 1.07.
The like results for `C[C@@H](O)[C@H]1C(=O)N2C(C(=O)OCOC(=O)C(C)(C)C)=C(SC3CN(C4=NCCS4)C3)[C@H](C)[C@H]12` [Tebipenem Pivoxil] were, in that order, -0.0929, 0.6, 0.338 and 0.33.
The like results for `Oc1cc2c(cc1O)C(c1ccccc1)CNCC2` (centres undefined) were, in that order, -0.256, 0.386, 1.17 and 1.16.
`NC(=O)c1ccc(-c2nc(-c3ccccn3)c(-c3ccc4c(c3)OCO4)[nH]2)cc1` displayed a nucleus area z-score in assay [1] of 4.08. For the same compound, the “total neurite length per nucleus (z-score)” value in assay [2] was -2.42. In assay [3], this compound showed a nucleus roundness z-score of -3.34. Moreover, in assay [4], the “KCl-induced FOS+/EGR-1+ double-positive nuclei fraction z-score” value is -1.04.
The like results for `Cc1ccc(Sc2cncc3sc(C(N)=O)cc23)cc1` were, in that order, 1.3, -2.29, -1.52 and -1.14.
As to `CC[C@@H](CO)NCCN[C@@H](CC)CO` [Ethambutol HCl], the nucleus area z-score in assay [1] was determined as 1.44. In assay [2], the “total neurite length per nucleus (z-score)” value was -1.09. In assay [3], this compound gave a nucleus roundness z-score of -0.47. The “KCl-induced FOS+/EGR-1+ double-positive nuclei fraction z-score” value in assay [4] was -0.455.
Compound `O=c1oc2c(O)c(O)cc3c(=O)oc4c(O)c(O)cc1c4c23` [Ellagic acid] had a nucleus area z-score in assay [1] of 0.608. Moreover, in assay [2], the “total neurite length per nucleus (z-score)” value came to 0.79. This compound had a nucleus roundness z-score in assay [3] of 0.358. For the same compound, the “KCl-induced FOS+/EGR-1+ double-positive nuclei fraction z-score” value in assay [4] is -0.143.
The like results for `NCCCC[C@H](NC(=O)[C@@H](NC(=O)[C@H](Cc1c[nH]c2ccccc12)NC(=O)[C@H](CCCCN)NC(=O)[C@H](CCCCN)NC(=O)[C@H](Cc1c[nH]c2ccccc12)NC(=O)[C@H](Cc1c[nH]c2ccccc12)NC(=O)[C@H](CCCCN)NC(=O)[C@@H](N)CCCCN)C(c1ccccc1)c1ccccc1)C(N)=O` (H-KKWWKKW[Dip]K-NH2) were, in that order, -0.118, 0.314, -1.59 and 0.904.
The like results for `OC[C@H]1OC(O)[C@H](O)[C@@H](O)[C@@H]1O` (some centres undefined) [Dextrose] were, in that order, 0.153, 1.36, 1.15 and 0.518.
The like results for `CCCCc1oc2ccc(NS(C)(=O)=O)cc2c1C(=O)c1ccc(OCCCN(CCCC)CCCC)cc1` [Dronedarone HCl] were, in that order, -15.1, -4.71, -10.3 and -2.07.
Regarding `CCC[C@H](Nc1nc(-c2ccc(NC(=O)NCC)c(OC)c2)ncc1C)c1cccnc1` [CYT997 (Lexibulin)], the nucleus area z-score in assay [1] was -11. Also, the “total neurite length per nucleus (z-score)” value in assay [2] is -6. For the same compound, the nucleus roundness z-score in assay [3] was -0.308. Further, in assay [4], the “KCl-induced FOS+/EGR-1+ double-positive nuclei fraction z-score” value was -0.931.

Source of the values: the supplement of paper PMC11348887.
